Results from PubChem BioAssay AID504467 (National Center for Advancing Translational Sciences (NCATS), 2011).
The campaign covered roughly 330,000 compounds. About 7,700 (2.3%) were called active. The shares of active, inactive and inconclusive entries below differ from those in the screen. The call rests on the fitted dose curve; in most records, active means well fitted inhibition curve with a large enough effect; inconclusive means small, poorly fitted or top-dose-only effect, or effect the other way; inactive means flat fitted curve, though single readings scatter. Potencies of inconclusive entries are doubtful fits and often do not repeat.
On the % scale 0 is the no-effect control and ±100 the full control effect; potency means the concentration at half of the fitted maximal effect.

Test: qHTS screen for small molecules that inhibit ELG1-dependent DNA repair in human embryonic kidney (HEK293T) cells expressing luciferase-tagged ELG1; further: nearly all actives have a fitted effect of over 55% in size
Settings: HEK293T ELG1-luciferase reporter, luminescence, 16 h, DNA damage induced by 5-fluorouridine; activity change, negative = inhibition: at 46.1 µM (top of the series)
In short: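 5-Fluorouridine DNA damage + compound/DMSO, 2,000 cells/well, 16 h, 37 °C/5% CO2. ONE-Glo, 30 min RT, luminescence. Readout = decrease in reporter signal.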
For `CCOc1ccc(N=Nc2c(C)[nH]n(-c3ccccc3)c2=O)cc1`, the “activity change, negative = inhibition” value was inactive: -4.09%. For `Cc1ccc(CNC(=O)[C@]2(C)CCC[C@@]3(C)C4CC[C@@]5(C)C[C@]4(CCC32)CC5=O)cc1` (stereo partly drawn), the Potency was inconclusive: 29.1 µM [inhibitor, single point]. For `COc1ccc(C(=O)Nc2cc3c4c(c2)CC(=O)N4CCC3)c(OC)c1`, the Potency was inconclusive: 10.3 µM [activator, partial curve]. With `c1ccc(Oc2cc(-c3ccccc3)nc(-c3ccccc3)n2)cc1` the Potency was inconclusive: 20.6 µM [activator, partial curve, poor fit]. In the case of `Cc1cc(C)cc(NS(=O)(=O)c2ccc3[nH]cc(C(=O)NCc4ccco4)c(=O)c3c2)c1`, the Potency is reported as active: 10.3 µM. For `CC(=O)c1cc(F)ccc1OCC(=O)Nc1ccc2c(c1)OCO2`, the Potency was inconclusive: 2.06 µM [activator, full curve]. For `COc1ccc(C(=O)OCC(=O)Nc2c(C)cccc2C)cc1`, the Potency was inconclusive: 20.6 µM [inhibitor, single point]. In the case of `Cc1nn(-c2ccccc2)c(C)c1NC(=O)COc1ccc2ccccc2c1`, the Potency is reported as inconclusive: 29.1 µM [inhibitor, single point]. For `O=C(O)c1ccc(CNC(=O)c2ccc(C(F)(F)F)cc2)cc1`, the “activity change, negative = inhibition” value was inactive: 11%. In the case of `CN(c1ccccc1)S(=O)(=O)c1cc(C(=O)N2CCN(c3ccccn3)CC2)ccc1Cl`, the Potency is reported as active: 14.6 µM. For `O=C(COc1ccc(Br)cc1Br)NC(=O)NC1CCCC1`, the Potency was inconclusive: 14.6 µM [activator, partial curve]. For `CCC1(C)SC(N)=NN1C(C)=O` (stereo not drawn), the “activity change, negative = inhibition” value was inactive: -1.27%. For `Cc1nc2ccc(NC(=O)c3cccc(S(=O)(=O)N4CC(C)OC(C)C4)c3)cc2s1` (stereo not drawn), the Potency was inconclusive: 20.6 µM [inhibitor, partial curve]. With `Cc1ccnc(NC(=O)c2cc3ccccc3o2)c1` the Potency was inconclusive: 0.0092 µM [activator, full curve, poor fit]. With `CCOc1ccccc1/C=N/Nc1cc(C)nc2ccc(C)cc12` the Potency was inconclusive: 11.6 µM [activator, partial curve, poor fit]. With `O=c1ccc2ccc(Oc3ccc([N+](=O)[O-])cc3[N+](=O)[O-])cc2o1` the Potency was inconclusive: 16.4 µM [activator, single point]. In the case of `CC(C)Sc1nnc(NC(=O)c2ccc3c(c2)OCO3)s1`, the Potency is reported as inconclusive: 6.51 µM [activator, partial curve]. In the case of `O=[N+]([O-])c1nn(-c2ccc3c(c2)OCCO3)n(O)c1=NCCCO`, the Potency is reported as inconclusive: 2.31 µM [activator, full curve]. With `CCCCCC(=O)Cc1cc(O)cc2c1C(=O)Oc1cc(O)c(C(=O)O)c(CCCCC)c1O2` the “activity change, negative = inhibition” value was inactive: 0.577%. With `CC(=O)c1ccc(-n2c(SCC(=O)c3c[nH]c4ccccc34)nc3ccccc3c2=O)cc1` the Potency was inconclusive: 29.1 µM [inhibitor, single point]. With `CCOC(=O)C1=C(C)N=C2SC(C(=O)OC)=CC(=O)N2C1c1ccc(OC)cc1` (stereo not drawn) the Potency was inconclusive: 29.1 µM [activator, single point]. With `C[C@H](CO)N1C[C@H](C)[C@@H](CN(C)Cc2ccccc2)Oc2c(NS(=O)(=O)c3ccc(F)cc3)cccc2C1=O` the “activity change, negative = inhibition” value was inactive: 15.6%. With `COc1ccc(N(CC(=O)NN=C2CCCCCCC2)S(=O)(=O)c2ccccc2)cc1` the Potency was inconclusive: 3.66 µM [inhibitor, single point]. With `CCC(C)n1c(SCc2ccc([N+](=O)[O-])cc2)nc2ccsc2c1=O` (stereo not drawn) the Potency was inconclusive: 32.6 µM [inhibitor, partial curve, poor fit]. In the case of `Cc1cc(NC(=O)CSc2nc(N)c(NC(=O)c3ccco3)c(=O)[nH]2)no1`, the Potency is reported as inconclusive: 29.1 µM [inhibitor, single point]. In the case of `Cc1ccc(-c2cc(C(=O)Nc3cc(C)on3)c3ccccc3n2)c(C)c1`, the “activity change, negative = inhibition” value is reported as inactive: -1.81%. With `Cc1cc(C)n(CC(C)NC(=O)c2cc(COc3ccc(F)c(F)c3)on2)n1` (stereo not drawn) the Potency was inconclusive: 23.1 µM [activator, single point]. With `Cc1ccc(Sc2cc(C(=O)NCCCN(C)C)c3ccccc3n2)cc1` the “activity change, negative = inhibition” value was inactive: 4.71%. With `Nc1ccc2oc3ccccc3c2c1` the Potency was inconclusive: 18.4 µM [activator, partial curve]. In the case of `CCOC(=O)c1c(C)nc2c(c1-c1ccccc1)C(=O)CCC2`, the “activity change, negative = inhibition” value is reported as inactive: 23.6%. For `Cc1cc(NC(=O)c2cc(-c3ccccc3)on2)no1`, the Potency was inconclusive: 29.1 µM [activator, single point]. For `CCOC(=O)N1CCN(CC(=O)Nc2c(C(=O)OC)[nH]c3ccccc23)CC1`, the Potency was inconclusive: 29.1 µM [inhibitor, single point]. For `COc1ccc(-c2ccc(C(c3c(C)[nH][nH]c3=O)c3c(C)[nH][nH]c3=O)o2)c([N+](=O)[O-])c1`, the Potency was inconclusive: 5.8 µM [inhibitor, single point]. With `COc1cccc(-c2nnc(N)o2)c1` the “activity change, negative = inhibition” value was inactive: 26.6%. With `CCC(C)(C)C1CCC(NC(=O)c2ccc(S(=O)(=O)N3CCOCC3)cc2)CC1` (stereo not drawn) the Potency was inconclusive: 20.6 µM [inhibitor, single point]. For `COc1ccc(/C=C/C(=O)NC(=S)NNC(=O)c2cc(OC)c(OC)c(OC)c2)cc1OC`, the Potency was inconclusive: 18.3 µM [inhibitor, single point]. In the case of `NC(=O)N1CCC2(CC1)NC(=O)N(c1ccccc1)N2`, the “activity change, negative = inhibition” value is reported as inactive: -17.4%. For `CC(=O)Nc1ccc(OCC(O)Cn2nc(C)c(C)c2C)cc1` (stereo not drawn), the “activity change, negative = inhibition” value was inactive: 2.99%. With `COc1ccc(NC(=S)NCCC2=CCCCC2)cc1OC` the Potency was inconclusive: 23.1 µM [activator, partial curve, poor fit]. For `CN(C)C(=O)c1nc2ccccc2s1`, the Potency was inconclusive: 23.1 µM [activator, single point]. In the case of `CNC(=O)c1cc(Cl)c(OC)c(OC)c1`, the Potency is reported as inconclusive: 32.6 µM [activator, partial curve, poor fit]. In the case of `O=C(NCCS(=O)(=O)N1CCN(c2ccccc2F)CC1)c1ccc2c(c1)OCO2`, the Potency is reported as inconclusive: 12.6 µM [inhibitor, single point]. With `Cn1c(C2CCCCC2)nc2ccccc21` the “activity change, negative = inhibition” value was inactive: 28.8%. In the case of `Nc1ccccc1Nc1cccc(C(F)(F)F)c1`, the Potency is reported as inconclusive: 18.3 µM [activator, single point]. With `CNc1c([N+](=O)[O-])cnn1-c1ccccn1` the “activity change, negative = inhibition” value was inactive: 12.6%. For `O=C(O)c1cccc(S(=O)(=O)Nc2ccc(Cc3ccncc3)cc2)c1`, the “activity change, negative = inhibition” value was inactive: 14.2%. With `O=C(Nc1cccnc1)c1ccc(-c2ccc(Cl)cc2)o1` the Potency was inconclusive: 23.1 µM [activator, partial curve]. With `COC(=O)c1cccc(N(C(=O)c2ccco2)C(C(=O)NC2CCCC2)c2ccco2)c1` (stereo not drawn) the Potency was inconclusive: 7.31 µM [inhibitor, partial curve, poor fit]. For `Cc1ccc(/C=N/N2CCN(c3ccccn3)CC2)o1`, the Potency was inconclusive: 16.4 µM [activator, partial curve]. In the case of `COC(CN(C)C(=O)C1CCC(CNS(=O)(=O)c2ccccc2)CC1)OC` (stereo not drawn), the “activity change, negative = inhibition” value is reported as inactive: -21.3%. In the case of `CN(C)CC(CCCCC(CN(C)C)C(=O)c1ccccc1)C(=O)c1ccccc1` (stereo not drawn), the Potency is reported as inconclusive: 20.6 µM [activator, partial curve]. In the case of `Cc1cc(/C=C(\C#N)C(=O)OCC(=O)Nc2ccc(OC(F)F)cc2)c(C)n1CC(C)C`, the Potency is reported as inconclusive: 7.31 µM [inhibitor, partial curve]. In the case of `CC(=O)O[C@]1(C(C)=O)CC[C@H]2[C@@H]3C=C(C)C4=CC(=O)CC[C@@H]4[C@H]3CC[C@@]21C`, the “activity change, negative = inhibition” value is reported as inactive: 1.76%. With `CCc1cc2c(=O)n(CCCOC)c(SCC(=O)Nc3oc(C)c4c(C)n[nH]c(=O)c34)nc2s1` the Potency was inconclusive: 8.2 µM [inhibitor, partial curve, poor fit]. With `Cc1cc(C)nc(NS(=O)(=O)c2ccc(NC(=O)c3ccc4c(c3)OCCO4)cc2)n1` the Potency was inconclusive: 25.9 µM [activator, single point]. In the case of `CCCN(CC(=O)Nc1ccccc1OC)C(=O)Cc1ccc2c(c1)CCC2`, the “activity change, negative = inhibition” value is reported as inactive: -0.0863%. For `CCOC(=O)[C@@H]1[C@H]2COc3cc(OC)ccc3[C@H]2N2C(=O)N(c3cccc(Cl)c3)C(=O)[C@@]12C`, the Potency was inconclusive: 29.1 µM [inhibitor, single point]. For `C/C(=N\NC(=O)CNC(=O)c1ccc(Br)cc1)c1ccco1`, the Potency was inconclusive: 20.6 µM [activator, single point]. In the case of `CCN(CC)S(=O)(=O)c1ccc(N2CCN(C)CC2)c(NC(=O)CSCC(=O)Nc2cccc(C)c2)c1`, the Potency is reported as inconclusive: 5.17 µM [inhibitor, full curve]. With `CC(=O)n1cc([C@@H]2C=C(C(=O)N3CCN(Cc4ccc5c(c4)OCO5)CC3)O[C@H](OCCCCO)C2)c2ccccc21` the Potency was active: 18.3 µM. With `Cc1cccc(NC(=O)CSc2nnc(-c3cc(C)n(-c4ccccc4)c3C)o2)c1C` the Potency was inconclusive: 29.1 µM [inhibitor, single point]. In the case of `COc1cc(OC)cc(C(=O)N(Cc2cc3cc(C)ccc3[nH]c2=O)C(C)C)c1`, the Potency is reported as inconclusive: 16.4 µM [inhibitor, single point]. With `O=C(N/N=C/c1ccccn1)c1ccc(Br)o1` the “activity change, negative = inhibition” value was inactive: -7.61%. With `Cc1ccc(S(=O)(=O)N2CCN(C(=O)c3ccc(Br)o3)CC2)c(C)c1` the “activity change, negative = inhibition” value was inactive: -8.36%. In the case of `COC(=O)Cn1c(CN2CCOCC2)nc2c1c(=O)n(C)c(=O)n2C`, the “activity change, negative = inhibition” value is reported as inactive: 17.3%. With `CS(=O)(=O)NCc1ccc(C(=O)NCCOc2ccccc2)cc1` the Potency was inconclusive: 16.4 µM [activator, partial curve]. For `COc1ccc(/C=C2\CCC(C3CCCC3)C2=O)cc1Cn1cccn1` (stereo not drawn), the “activity change, negative = inhibition” value was inactive: -20.8%. For `CCOc1ccccc1NC(=S)N1CCN(c2cccc(C)c2C)CC1`, the Potency was inconclusive: 29.1 µM [inhibitor, single point].
